These are yes or no findings as the source states them, for the method shown. In cells and extracts the contact can be indirect. Some binding calls cover weakened binding; strength is not graded here.
Biological target: GST-RhoGDI1 (UniProt Q5XI73)
Test: pull-down; GST-RhoGDIs (or GST only) immobilised on glutathione agarose beads, incubated with RBL-2H3 lysate 1 h at 4 °C (50 mM HEPES pH 7.5, 50 mM NaCl, 5 mM MgCl2, 1% Triton X-100); immunoblot for RhoA, RhoG, Rac1, Rac2, Cdc42; only the target purified

Protein sequences, listed by entry. Tags and fused reporters are not part of them.
UniProt Q5XI73: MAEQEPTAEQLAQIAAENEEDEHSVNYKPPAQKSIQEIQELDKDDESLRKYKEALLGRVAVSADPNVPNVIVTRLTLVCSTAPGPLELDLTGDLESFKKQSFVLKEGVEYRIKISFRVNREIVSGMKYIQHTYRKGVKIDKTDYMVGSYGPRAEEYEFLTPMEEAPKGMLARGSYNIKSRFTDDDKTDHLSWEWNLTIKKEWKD
UniProt P61589: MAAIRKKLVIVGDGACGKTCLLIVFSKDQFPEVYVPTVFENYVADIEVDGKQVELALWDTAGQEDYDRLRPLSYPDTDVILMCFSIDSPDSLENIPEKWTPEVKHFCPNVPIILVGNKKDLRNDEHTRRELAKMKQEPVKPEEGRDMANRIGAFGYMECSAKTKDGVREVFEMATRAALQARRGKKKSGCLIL

binding: binds
Substance: RhoA, endogenous in RBL-2H3 cells (from UniProt P61589 1-193)
